These are yes or no findings as the source states them, for the method shown. Some results given as binding are weak or reduced against the parent protein; the word gives no strength.

Sequences and labels used below:
B1: 900581 (antibody, human IgG1, V domains shown)
VH: EVQLVESGGGLVKPGGSLKLSCAASGFTFSKYAMSWVRQSPEKRLEWVAEISSGGGYINYPDTVTGRFTISRDNAKNTLYLEMSSLRSGDTAMYYCARAIYYYGSSYNYYAMDYWGQGTSVTVSS
VL: DIVMTQSHKFMSTSVGDRVSITCKASQDVGTAEAWYQQKPGQSPKLLIYWASTRHTGVPDRFTGSGSGTDFTLTIGNVQSEDLADYFCQQYSSYPLTFGGGTKLEIK
B2: 900695 (antibody, V domains shown)
VH: QVQLVESGGGLVKPGGSLRLSCAASGFTFSKYAMSWVRQAPGKGLEWVAEISSGGGYINYADSVTGRFTISRDNAKNSLYLQMNSLRAEDTAVYYCARAIYYYGSSYNYYAMDYWGQGTTVTVSS
VL: DIQMTQSPSSLSASVGDRVTITCRASQDVGTAEAWYQQKPGKAPKLLIYWASTRHTGVPSRFSGSGSGTDFTLTISSLQPEDFATYYCQQYSSYPLTFGQGTKLEIK
notes: Constant regions are not restated
B3: 900694 (antibody, V domains shown)
VH: EVQLVESGGGLVKPGGSLRLSCAASGFTFSKYAMSWVRQAPGKGLEWVAEISSGGGYINYPDTVTGRFTISRDNAKNSLYLQMNSLRAEDTAVYYCARAIYYYGSSYNYYAMDYWGQGTTVTVSS
VL: DIQMTQSPSSLSASVGDRVTITCRASQDVGTAEAWYQQKPGKAPKLLIYWASTRHTGVPDRFSGSGSGTDFTLTISSLQPEDFATYYCQQYSSYPLTFGQGTKLEIK
notes: Constant regions are not restated; it was detected with anti-human Fc and captured on protein A
B4: 900697 (antibody, V domains shown)
VH: QVQLVESGGGLVKPGGSLRLSCAASGFTFSKYAMSWVRQAPGKGLEWVAEISSGGGYINYADSVTGRFTISRDNAKNSLYLQMNSLRAEDTAVYYCARAIYYYGSSYNYYAMDYWGQGTTVTVSS
VL: DIQMTQSPSSLSASVGDRVTITCRASQDVGTAEAWYQQKPGKAPKLLIYWASTLQSGVPSRFSGSGSGTDFTLTISSLQPEDFATYYCQQYSSYPLTFGQGTKLEIK
notes: as for B2
B5: 900696 (antibody, V domains shown)
VH: QVQLVESGGGLVKPGGSLRLSCAASGFTFSKYAMSWIRQAPGKGLEWVAEISSGGGYINYADSVKGRFTISRDNAKNSLYLQMNSLRAEDTAVYYCARAIYYYGSSYNYYAMDYWGQGTTVTVSS
VL: DIQMTQSPSSLSASVGDRVTITCRASQDVGTAEAWYQQKPGKAPKLLIYWASTLQSGVPSRFSGSGSGTDFTLTISSLQPEDFATYYCQQYSSYPLTFGQGTKLEIK
notes: as for B2
B6: 900698 (antibody, V domains shown)
VH: QVQLVESGGGLVKPGGSLRLSCAASGFTFSKYAMSWIRQAPGKGLEWVAEISSGGGYINYADSVKGRFTISRDNAKNSLYLQMNSLRAEDTAVYYCARAIYYYGSSYNYYAMDYWGQGTTVTVSS
VL: DIQMTQSPSSLSASVGDRVTITCRASQDVGTAEAWYQQKPGKAPKLLIYWASTRHTGVPSRFSGSGSGTDFTLTISSLQPEDFATYYCQQYSSYPLTFGQGTKLEIK
notes: as for B2

The first assay addresses monkey CD73 (Novoprotein, Cat No. C121) (monkey). The assay can be described thus: SPR (Biacore T200), protein A capture. A general note: In SPR one partner is held on a chip, and binding of the other changes the refractive index at the surface.
For the molecule B1, the binding result is given as “binds”.
For the molecule B2, the binding result is “binds”.
For B3, the binding entry was “binds”.
On the same count and under the same terms, to B4 belongs “binds”; to B5, “binds”.
For B6, the binding entry is reported as “binds”.

A further assay concerns the target T1, CD73 (construct not stated) (Homo sapiens (Human)) (UniProt P21589).
T1 sequence: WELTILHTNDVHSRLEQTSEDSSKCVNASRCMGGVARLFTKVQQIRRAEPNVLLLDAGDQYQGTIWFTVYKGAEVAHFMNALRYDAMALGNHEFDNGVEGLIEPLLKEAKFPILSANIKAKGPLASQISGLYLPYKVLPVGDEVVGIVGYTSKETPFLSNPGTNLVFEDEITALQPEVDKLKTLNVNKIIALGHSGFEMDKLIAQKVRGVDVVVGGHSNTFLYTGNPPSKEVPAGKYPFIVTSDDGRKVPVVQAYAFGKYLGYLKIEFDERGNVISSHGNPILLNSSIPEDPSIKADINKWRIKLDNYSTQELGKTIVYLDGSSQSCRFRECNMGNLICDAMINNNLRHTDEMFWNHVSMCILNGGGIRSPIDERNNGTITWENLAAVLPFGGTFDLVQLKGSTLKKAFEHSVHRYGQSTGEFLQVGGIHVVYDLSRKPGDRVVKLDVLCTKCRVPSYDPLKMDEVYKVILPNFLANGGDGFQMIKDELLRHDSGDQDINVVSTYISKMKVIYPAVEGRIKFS
The assay can be described thus: HDX-MS of the antigen and antigen-binding protein complex.
Regarding B1, the binding entry was “binds”.

Values taken from patent publication US20240026024A1 (SHANGHAI HUAOTA BIOPHARMACEUTICAL, published 2024).
